Data source: PubChem BioAssay AID1259308 (NCATS, 2017)

Purpose: 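Candidate targets for better recombinant protein yield in mammalian cells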 (primary screen)
System: human HEK293 embryonic kidney cells stably expressing firefly luciferase (HEK-CMV-Luc2-Hygro)
Knock-down reagent: single siRNA against human genes, 0.8 pmol siRNA per well
Timing: 72 h
Measured: 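Luciferase light (ONE-Glo) measured on one replicate plate set and viability (CellTiter-Glo) on the other, scaled to a negative control siRNA, with robust z-scores and luciferase per cell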
Reading the numbers: total luciferase, z-score and total luciferase, % of control: higher = more reporter protein produced; luciferase per cell, z-score: higher = more reporter output per viable cell; viable cells, % of control: higher = more viable cells
Active means: 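An siRNA counts as active if its total luciferase robust z-score exceeds 3; genes with two or more such siRNAs out of three were retested with fresh siRNAs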
Meaning of the calls: active = raised luciferase; inactive = no rise
The deposit covers about 59,000 reagents; below is an unselected part. About 1,510 of all reagents (2.6%) were called active. 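Calls use total luciferase alone and ignore viability, so some active siRNAs may act by altering cell number.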 Reagent sequences are not shown.

Target gene | PubChem SID | total luciferase, z-score | total luciferase, % of control | luciferase per cell, z-score | viable cells, % of control | Outcome
DNAJB13 | SID160765269 | -2.07 | 40.7 | -2.16 | 80.4 | inactive
DNAJB13 | SID160765270 | 1.71 | 116 | 1.3 | 92.1 | inactive
DNAJB13 | SID160765271 | -0.919 | 63.6 | -0.412 | 79.2 | inactive
MAEL | SID160753006 | -0.0557 | 80.8 | 0.207 | 85.5 | inactive
MAEL | SID160753007 | -2.23 | 37.5 | -0.21 | 44.3 | inactive
MAEL | SID160753008 | -0.821 | 65.6 | -1.33 | 104 | inactive
MORN1 | SID160749750 | -0.451 | 72.9 | -0.701 | 98 | inactive
MORN1 | SID160749752 | 0.607 | 94 | 0.00549 | 105 | inactive
MORN1 | SID160749753 | -2.01 | 41.9 | -2.49 | 90.4 | inactive
INPP5D | SID160775872 | -1.09 | 60.2 | -0.872 | 84.6 | inactive
INPP5D | SID160775874 | -0.16 | 78.7 | -0.162 | 91.8 | inactive
INPP5D | SID160775875 | 2.5 | 132 | 1.64 | 95.5 | inactive
PRODH2 | SID160746886 | 3.43 | 150 | 2.42 | 88.6 | active
PRODH2 | SID160746887 | 0.0398 | 82.7 | -0.0914 | 94.6 | inactive
PRODH2 | SID160746888 | -1.03 | 61.4 | -0.308 | 74.4 | inactive
LRRC1 | SID160743284 | -0.233 | 77.3 | -0.793 | 106 | inactive
LRRC1 | SID160743285 | 0.071 | 83.3 | 0.153 | 89.4 | inactive
LRRC1 | SID160743286 | -0.46 | 72.7 | -1.02 | 106 | inactive
LINC01915 | SID160773311 | -0.0743 | 80.4 | 0.879 | 71.3 | inactive
LINC01915 | SID160773312 | 0.693 | 95.7 | -0.163 | 112 | inactive
LINC01915 | SID160773313 | -0.387 | 74.2 | -0.396 | 92 | inactive
LHX5 | SID160747575 | -0.164 | 78.6 | 1.37 | 61.3 | inactive
LHX5 | SID160747576 | -1.07 | 60.5 | -0.121 | 69.9 | inactive
LHX5 | SID160747577 | -1.45 | 53.1 | -1.53 | 88.8 | inactive
